The list is a part of this screen's results and no random one: it gathers tests that were run many times, whatever their T/C, doses with no T/C, and many T/C values between a quarter and a half above the control. Further doses and runs are listed elsewhere. T/C gives the treated animals as a percentage of the vehicle group. Some entries give survivors of the animals treated and no T/C: the source holds a T/C of zero for them, seemingly a mark for toxic or unscored doses. Some survivor counts are full or nearly so, which does not show that the dose was tolerated: survival well below the control is almost never listed, so the zero probably covers shortened survival too. Survivors were counted at the toxicity check, usually on the fifth day, unless a day is given; later deaths do not show. Schedule codes are those of the source, read here as Q, the interval in days (D) or hours (H), X, the number of doses. Some entries were tested several times; the values are given in rising order. For survival time, this PubChem deposit counts one and a half times the control or more as active, and values a quarter to a half above the control carry no call in these data; other NCI protocols may use other cut-offs. Some T/C values are followed by the survivors on the day toxicity was checked, most often the fifth; without a count, all were alive then.

The subject of the assay is BDF1 mice, P388 leukemia ip, median survival T/C. Put plainly: NCI In Vivo Anticancer Drug Screen. Data for tumor model P388 Leukemia (intraperitoneal) in B6D2F1 (BDF1) mice. Particulars: T/C endpoint: median survival time, higher T/C = longer survival. Put shortly: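 Reported as T/C, where T is the survival measurement in dosed animals and C the same measurement in vehicle controls.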

Setting [1] is: dose: 200.0 mg/kg/injection, schedule: Q01DX009 (ip), vehicle: saline with Tween-80.
[2] abbreviates: dose: 50.0 mg/kg/injection, schedule: Q01DX009 (ip), vehicle: saline with Tween-80.
[3] abbreviates: dose: 100.0 mg/kg/injection, schedule: Q04DX003 (ip), vehicle: saline with Tween-80.
The mark [4] stands for this setting: dose: 400.0 mg/kg/injection, schedule: Q01DX009 (ip), vehicle: saline with Tween-80.
Where [5] appears, read: dose: 25.0 mg/kg/injection, schedule: Q01DX009 (ip), vehicle: saline with Tween-80.
[6] abbreviates: dose: 100.0 mg/kg/injection, schedule: Q01DX009 (ip), vehicle: saline with Tween-80.
Setting [7] is: dose: 12.5 mg/kg/injection, schedule: Q01DX009 (ip), vehicle: Klucel (hydroxypropylcellulose) (HPC).
The mark [8] stands for this setting: dose: 18.0 mg/kg/injection, schedule: Q04DX003 (ip), vehicle: Klucel (hydroxypropylcellulose) (HPC).
Setting [9] is: dose: 100.0 mg/kg/injection, schedule: Q01DX009 (ip), vehicle: other.

Take `O=C(CC(=O)C(F)(F)F)c1ccc(-c2ccccc2)cc1`: under setting [1], the survivor count is 0 of 6.

As for `O=C(CC(C(=O)c1ccccc1)N1CC1)c1ccccc1` (centres undefined), the survivor count (dose: 200.0 mg/kg/injection, schedule: Q04DX003 (ip), vehicle: saline with Tween-80) is 3 of 6.

For `Cc1ccc(-c2cc(C)n(C)[n+]2C)cc1`, the survivor count under setting [2] is 0 of 6.

Consider `COc1cc2c(cc1OC)C(=O)N(C)CC2`, for which, under “dose: 400.0 mg/kg/injection, schedule: Q01DX009 (ip), vehicle: water”, the survivor count is listed as 0 of 6.

On to `CCCCCCCCCCCCCCCCCCSc1ccccc1`, for which the survivor count runs as follows: (dose: 100.0 mg/kg/injection, schedule: Q04DX003 (ip), vehicle: Klucel (hydroxypropylcellulose) (HPC)) 6 of 6; (dose: 200.0 mg/kg/injection, schedule: Q04DX003 (ip), vehicle: Klucel (hydroxypropylcellulose) (HPC)) 6 of 6; (dose: 400.0 mg/kg/injection, schedule: Q04DX003 (ip), vehicle: Klucel (hydroxypropylcellulose) (HPC)) 6 of 6.

As for `Cc1ccc(C)c(C(=O)CCC(=O)O)c1`, the survivor count is, setting by setting: under setting [2], 6 of 6; under setting [3], 6 of 6; under setting [4], 3 of 6.

On to `CNc1nc2c(N)ncnc2n1C1OC(CO)C(O)C1O` (centres undefined), for which, under setting [5], the T/C is 134 % of control. The survivor count by setting is: under setting [2], 0 of 6; under setting [6], 0 of 6.

`COc1cc(N(CCCl)CCCl)c(OC)cc1/C=N/NC(=O)CC(N)C(=O)O` (centres undefined): the T/C runs as follows: under setting [7], 139 % of control; (dose: 19.0 mg/kg/injection, schedule: Q04DX003 (ip), vehicle: Klucel (hydroxypropylcellulose) (HPC)) 145 % of control; (dose: 29.0 mg/kg/injection, schedule: Q04DX003 (ip), vehicle: Klucel (hydroxypropylcellulose) (HPC)) 145 % of control; (dose: 45.0 mg/kg/injection, schedule: Q04DX003 (ip), vehicle: Klucel (hydroxypropylcellulose) (HPC)) 136 % of control. Also, the survivor count is, setting by setting: (dose: 100.0 mg/kg/injection, schedule: Q01DX009 (ip), vehicle: Klucel (hydroxypropylcellulose) (HPC)) 4 of 6; (dose: 200.0 mg/kg/injection, schedule: Q01DX009 (ip), vehicle: Klucel (hydroxypropylcellulose) (HPC)) 0 of 6; (dose: 300.0 mg/kg/injection, schedule: Q04DX003 (ip), vehicle: Klucel (hydroxypropylcellulose) (HPC)) 3 of 6 and 5 of 6; (dose: 400.0 mg/kg/injection, schedule: Q01DX009 (ip), vehicle: Klucel (hydroxypropylcellulose) (HPC)) 0 of 6.

As to `O=C(CCC(=O)[O][Sn]([c]1ccccc1)([c]1ccccc1)[c]1ccccc1)[O][Sn]([c]1ccccc1)([c]1ccccc1)[c]1ccccc1`, the survivor count was 2 of 6 (dose: 6.25 mg/kg/injection, schedule: Q01DX009 (ip), vehicle: Klucel (hydroxypropylcellulose) (HPC)); 0 of 6 under setting [7]; 5 of 6 under setting [8]; 3 of 6 (dose: 28.0 mg/kg/injection, schedule: Q04DX003 (ip), vehicle: Klucel (hydroxypropylcellulose) (HPC)); 3 of 6 (dose: 40.0 mg/kg/injection, schedule: Q04DX003 (ip), vehicle: Klucel (hydroxypropylcellulose) (HPC)). Further, the T/C under setting [8] was 127 % of control.

On to `COC1C(O)CC(=O)OC(C)C/C=C/C=C/C(OC2CCC(N(C)C)C(C)O2)C(C)CC(CC=O)C1OC1OC(C)C(OC2CC(C)(O)C(O)C(C)O2)C(N(C)C)C1O` (centres undefined), for which the survivor count runs as follows: (dose: 6.25 mg/kg/injection, schedule: Q01DX009 (ip), vehicle: saline with Tween-80) 3 of 3; (dose: 12.5 mg/kg/injection, schedule: Q01DX009 (ip), vehicle: saline with Tween-80) 3 of 3; under setting [5], 3 of 3; under setting [6], 0 of 3; under setting [1], 0 of 3; under setting [4], 0 of 3.

For the molecule `CNC/C(C)=C/Br`, the survivor count is, setting by setting: (dose: 115.0 mg/kg/injection, schedule: Q01DX009 (ip), vehicle: saline) 1 of 6; (dose: 170.0 mg/kg/injection, schedule: Q01DX009 (ip), vehicle: saline) 0 of 6; (dose: 255.0 mg/kg/injection, schedule: Q01DX001 (ip), vehicle: saline) 6 of 6.

With `C[CH2][Sn]([CH2]C)([CH2]C)[NH]S(=O)(=O)c1ccc(C)cc1`, the T/C (dose: 1.56 mg/kg/injection, schedule: Q01DX009 (ip), vehicle: Klucel (hydroxypropylcellulose) (HPC)) was 125 % of control. Further, the survivor count (dose: 28.0 mg/kg/injection, schedule: Q01DX001 (ip), vehicle: Klucel (hydroxypropylcellulose) (HPC)) is on record as 1 of 6 and the survivor count (dose: 40.0 mg/kg/injection, schedule: Q01DX001 (ip), vehicle: Klucel (hydroxypropylcellulose) (HPC)) is 0 of 6.

Turning to `CCCCCCC(=O)O[C@H]1CC[C@H]2[C@@H]3CCC4=CC(=O)CC[C@]4(C)[C@H]3CC[C@]12C`, the T/C under setting [9] was 125 % of control.

`CC1(C)N=C(N)N=C(N)N1c1ccc(CCCCc2cccc(S(=O)(=O)F)c2)c(Cl)c1`: the T/C is 127 % of control (dose: 0.29 mg/kg/injection, schedule: Q01DX009 (ip), vehicle: saline with Tween-80); 140 % of control (dose: 0.44 mg/kg/injection, schedule: Q01DX009 (ip), vehicle: saline with Tween-80); 136 % of control (dose: 0.88 mg/kg/injection, schedule: Q01DX009 (ip), vehicle: saline with Tween-80); 126 % of control (dose: 2.0 mg/kg/injection, schedule: Q01DX009 (ip), vehicle: saline with Tween-80); 137 % of control (dose: 8.0 mg/kg/injection, schedule: Q01DX009 (ip), vehicle: saline with Tween-80); 144 % of control (dose: 12.0 mg/kg/injection, schedule: Q01DX009 (ip), vehicle: saline with Tween-80). For the same molecule, the T/C by setting is: (dose: 18.0 mg/kg/injection, schedule: Q01DX009 (ip), vehicle: saline with Tween-80) 148 % of control; (dose: 25.0 mg/kg/injection, schedule: Q04DX003 (ip), vehicle: saline with Tween-80) 127 % of control. Further, the survivor count by setting is: (dose: 0.66 mg/kg/injection, schedule: Q01DX009 (ip), vehicle: saline with Tween-80) 6 of 6; (dose: 1.0 mg/kg/injection, schedule: Q01DX009 (ip), vehicle: saline with Tween-80) 6 of 6; (dose: 50.0 mg/kg/injection, schedule: Q04DX003 (ip), vehicle: saline with Tween-80) 3 of 6; under setting [3], 4 of 6.

With `C[n+]1cc2cc3c(cc2c2ccccc21)OCO3`, the T/C is 132 % of control (dose: 3.13 mg/kg/injection, schedule: Q01DX009 (ip), vehicle: other); 134 % of control (dose: 6.25 mg/kg/injection, schedule: Q01DX009 (ip), vehicle: other); 132 % of control (dose: 12.5 mg/kg/injection, schedule: Q01DX009 (ip), vehicle: other). Further, the survivor count was 6 of 6 (dose: 25.0 mg/kg/injection, schedule: Q01DX009 (ip), vehicle: other); 5 of 6 (dose: 50.0 mg/kg/injection, schedule: Q01DX009 (ip), vehicle: other); 0 of 6 under setting [9].

Take `O=[N+]([O-])c1ccc(NCc2ccccc2)nc1`: the T/C under setting [1] was 125 % of control [5 of 6 alive].

The values are drawn from PubChem BioAssay AID328 (DTP/NCI, 2004).
